Results: PubChem BioAssay AID1487 (National Center for Advancing Translational Sciences (NCATS), 2009)
This is one part of the list. These are further read-outs of the screen, such as a control signal, another cell line or another target. No call is given for them. Most of these compounds were active or inconclusive in the main read-out, so they are no random draw. Words in brackets tell the shape of the fitted curve; partial curves, single points and poor fits give uncertain potencies.

Assay: qHTS Assay for Modulators of Lamin A Splicing
Conditions: HeLa LMNA splicing GFP/RFP minigene ratio, 48 h
Description: NCGC Assay Overview: Hutchinson-Gilford Progeria Syndrome (HGPS) is a pediatric premature aging disease caused by a spontaneous mutation in the lamin A/C (LMNA) gene. The mutation activates a cryptic splice site in the LMNA pre-mRNA which results in production of a pre-lamin A protein that cannot be processed properly. The mutant protein accumulates in the nucleus and negatively affects numerous cellular functions. Correction of the splicing defect in HGPS patient cells using a targeted oligonucleotide (exo11) leads to reversal of the cellular disease phenotypes. To identify small molecule modulators of aberrant LMNA splicing, a homogenous assay was constructed in HeLa cells that used a GFP containing minigene to report on correction of aberrant splicing in lamin A and a RFP (DsRed2) to report on cell viability, uniformity and nonspecific effects on the assay signal. This assay was adapted to laser-scanning microplate cytometry (Acumen, TTP Labtech) where miniaturization of the assay to a 1,536-well plate format was possible. References: Bowen, W. P.; Wylie, P. G. Application of Laser-Scanning Fluorescence Microplate Cytometry in High Content Screening. Assay Drug Dev Technol 2006;4:209-221. Scaffidi P, Misteli T. Reversal of the cellular phenotype in the premature aging disease Hutchinson-Gilford progeria syndrome. Nat.
NCGC Assay Protocol Summary: Reagents/Controls: Stable clones expressing DsRed2 and lamin A-EGFP were generated by Cell and Molecular Technologies in S3 HeLa cells. HeLa cells were prepared for the assay when they were 70-90% confluent. The cells were counted and resuspended in Opti-MEM I (no phenol red; Gibco), 2% FBS, 1% penicillin/ streptomycin (Gibco) at concentration of 120 cells/uL concentration. The suspension was passed through a Falcon basket filter with pore size 40um (Beckton Dickson). Control titrations: column […] 1536-well plate contained a sixteen point titration (1:2 dilutions) in duplicate of ancitabine (Sigma: A8598) beginning at 40 uM final concentration. Column 2 contained a sixteen point titration (1:2 dilutions) of cycloheximide beginning at 1.4 mM final concentration. Column 3 contained ancitabine at 40 uM and column 4 contained was the vehicle control (0.5% DMSO final concentration). Assay Steps: 5 uL of HeLa cells were plated in Aurora LoBase black clear bottom (cyclic-olefin polymer) 1536-well plates at a final density of 600 cells/well. Controls and library compounds were added with a 1536-well pin array using the Kalypsys pin-tool. The plates were then incubated for 48 hrs in a cell-culture incubator (37 °C; 5% CO2, 98% humidity). Following incubation the plates were read on the Acumen Explorer using the 488 nm laser. Data was collected on objects between 10 and 100 um in size. Cell objects were defined by a 15 um width x 10 um depth filter. The ratio of the total object intensity in PMT1 (500-530 nm emission; GFP) over PMT3 (575-640 nm emission; RFP) was calculated for analysis. Keywords: NIH Roadmap, MLSCN, MLI, MLSMR, qHTS, NCGC, lamin A, Progeria, RNA splicing.

[1] = measured here: RFP viability control channel
[2] = measured here: GFP splicing reporter channel

Row | Compound | AC50 [1] | AC50 [2]
1 | Cn1cnnc1SCC(=O)NCCc1ccc(Cl)cc1Cl | 7.08 µM [falling, partial curve, poor fit] | 
2 | CCN(CC)S(=O)(=O)c1ccc2oc(C(=O)NCC3COc4ccccc4O3)c(C)c2c1 (stereo unspecified) | 10 µM [rising, partial curve] | 
3 | CCn1c2c(c3cc(Br)ccc31)CCC/C2=N\O |  | 15.8 µM [rising, partial curve, poor fit]
4 | CCOc1ccc2[nH]cc(C(=O)N3CCN(CC)CC3)c(=O)c2c1 |  | 11.2 µM [rising, single point]
5 | Cc1ccccc1C(=O)Nc1ccc(-c2nc3ccc(C(=O)c4ccccc4)cc3[nH]2)cc1 | 2.82 µM [falling, full curve, poor fit] | 2.82 µM [falling, full curve, poor fit]
6 | Cc1cc([N+](=O)[O-])ccc1NC(=O)c1cccc(NC(=O)C(C)C)c1 | 0.00794 µM [falling, full curve, poor fit] | 
7 | CS(=O)(=O)OCCCCOS(C)(=O)=O |  | 0.000891 µM [falling, full curve, poor fit]
8 | O=C(CNC(=O)c1ccc(F)cc1)N/N=C/c1cc(Br)ccc1OCc1ccccc1 | 12.6 µM [rising, partial curve] | 8.91 µM [rising, partial curve]
9 | Cc1ccc(S(=O)(=O)N(CC(=O)NCCSc2ccccn2)c2ccc(C)c(C)c2)cc1 | 31.6 µM [rising, single point] | 
10 | O=C(CNCCO)N1CCc2ccccc21 | 35.5 µM [falling, single point] | 35.5 µM [falling, single point]
11 | Cc1cc(C)n(-c2ccc(C(=O)OCC(=O)Nc3cc(Cl)ccc3[N+](=O)[O-])cc2)n1 | 7.94 µM [rising, partial curve, poor fit] | 20 µM [rising, partial curve, poor fit]
12 | CCc1nn2c(=O)cc(COC(=O)c3cccc(NC(=O)c4ccccc4Cl)c3)nc2s1 | 35.5 µM [rising, single point] | 
13 | CCOC(=O)c1c(C)n(C)c2ccc(O)c(CN(C)C)c12 | 5.62 µM [falling, single point] | 6.31 µM [falling, single point]
14 | COc1ccc(-c2cc(-c3cc(C)ccc3O)[nH]n2)cc1 | 15.8 µM [rising, partial curve] | 2.82 µM [rising, partial curve, poor fit]
15 | O=C(NNc1nc2ccc(Cl)cc2s1)c1cc(-c2cccs2)nc2ccccc12 | 11.2 µM [rising, partial curve] | 

One compound at a time, as listed above.
CCn1c2c(c3cc(Br)ccc31)CCC/C2=N\O is entered as AC50 [2]: 15.8 µM [rising, partial curve, poor fit]
CCN(CC)S(=O)(=O)c1ccc2oc(C(=O)NCC3COc4ccccc4O3)c(C)c2c1 (stereo unspecified) is entered as AC50 [1]: 10 µM [rising, partial curve]
